Measured values from publication PMC8761496.
Results are given in words; binding and its absence hold for the method and conditions named. In cells and extracts the contact can be indirect. Binding calls can cover weak binding; strength is not graded here. Where a sequence is shown, tags or fusion partners need not be part of it. Values belong to the molecule of their own block, whether it stands above or below them.

Key:
Chl1-Myc (S. cerevisiae) = target: T1, Chl1-Myc (S. cerevisiae) (UniProt P22516); assay: co-IP; extracts of ground frozen yeast cells in lysis buffer (100 mM HEPES-KOH pH 7.9, 50 mM potassium acetate, 10 mM magnesium acetate, 2 mM EDTA); Dynabeads with anti-Myc (9B11) or anti-HA (HA-7), IgG only as control; blots probed for Myc and HA; cells synchronized in G1 and released in 0.2 M HU for 40 min, or released at 20°C for 25 min (unperturbed)
T1 sequence: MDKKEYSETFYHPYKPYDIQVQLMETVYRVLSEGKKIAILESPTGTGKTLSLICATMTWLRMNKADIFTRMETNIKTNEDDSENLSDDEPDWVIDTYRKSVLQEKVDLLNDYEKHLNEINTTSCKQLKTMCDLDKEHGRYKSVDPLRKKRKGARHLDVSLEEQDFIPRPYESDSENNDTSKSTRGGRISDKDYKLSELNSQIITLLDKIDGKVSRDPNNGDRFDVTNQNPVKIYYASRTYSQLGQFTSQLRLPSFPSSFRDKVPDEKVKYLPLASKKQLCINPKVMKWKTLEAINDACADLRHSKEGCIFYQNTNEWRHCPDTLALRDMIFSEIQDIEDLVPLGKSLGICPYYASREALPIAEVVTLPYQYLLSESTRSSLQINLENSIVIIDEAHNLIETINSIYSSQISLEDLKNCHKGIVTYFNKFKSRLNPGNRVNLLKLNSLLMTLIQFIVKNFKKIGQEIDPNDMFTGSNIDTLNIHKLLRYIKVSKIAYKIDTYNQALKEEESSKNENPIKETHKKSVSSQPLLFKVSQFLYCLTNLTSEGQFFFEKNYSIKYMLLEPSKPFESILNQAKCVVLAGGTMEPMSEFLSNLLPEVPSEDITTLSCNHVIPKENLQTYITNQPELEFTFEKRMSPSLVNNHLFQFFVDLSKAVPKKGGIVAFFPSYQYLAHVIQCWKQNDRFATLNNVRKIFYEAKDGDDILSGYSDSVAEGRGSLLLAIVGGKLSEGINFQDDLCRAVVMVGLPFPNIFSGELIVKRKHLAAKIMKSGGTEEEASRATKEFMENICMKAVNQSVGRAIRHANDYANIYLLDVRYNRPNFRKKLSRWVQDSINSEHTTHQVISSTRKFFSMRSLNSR

[1] = target: DNA polymerase α (Pol α)-HA (S. cerevisiae); assay: as above

binding (Chl1-Myc (S. cerevisiae)): binds
Molecule: DNA polymerase α (Pol α)-HA (S. cerevisiae)

binding [1]: binds
B1: Chl1-Myc (protein, UniProt P22516 1-861)
chain: T1 sequence
